# From USRE39866E1 (Telik, Inc., priority 1997, dated 2007)
# For at least one compound, name, drawing or mass did not settle the structure.
# Tested on: differentiated 3T3-L1 cells
# Assay: 14C glucose uptake by differentiated 3T3-L1 adipocytes
# Assay type: cell-based
# Conditions: 5 μM wortmannin
compound,measurement,value
COC[C@H]1OC(=O)c2coc3c2[C@@]1(C)C1=C(C3=O)[C@@H]2CCC(=O)[C@@]2(C)C[C@H]1OC(C)=O [wortmannin],effect on TER16998 sensitization of cells to insulin (glucose uptake),inhibited
